From paper PMC3787022, “Small Angle X-Ray Scattering Studies of Mitochondrial Glutaminase C Reveal Extended Flexible Regions, and Link Oligomeric State with Enzyme Activity” (PLoS ONE, 2013)
Results are given in words; binding and its absence hold for the method and conditions named. Some results given as binding are weak or reduced against the parent protein; the word gives no strength.

Biological target: Glutaminase C wildtype construct (mouse GAC, residues 73-603) (mouse) (UniProt D3Z7P3)
Assay: TEM; TEM images of higher order oligomers (Figure S10 in File S1); conditions not shown; both purified

B1: Glutaminase C wildtype construct (mouse GAC, residues 73-603) (enzyme, UniProt D3Z7P3-2 73-603, looked up)
chain: SSSPSEILQELGKGGTPPQQQQQQQQQPGASPPAAPGPKDSPGETDAFGNSEGKEMVAAGDNKIKQGLLPSLEDLLFYTIAEGQEKIPVHKFITALKSTGLRTSDPRLKECMDMLRLTLQTTSDGVMLDKDLFKKCVQSNIVLLTQAFRRKFVIPDFMSFTSHIDELYESAKKQSGGKVADYIPQLAKFSPDLWGVSVCTVDGQRHSIGDTKVPFCLQSCVKPLKYAIAVNDLGTEYVHRYVGKEPSGLRFNKLFLNEDDKPHNPMVNAGAIVVTSLIKQGVNNAEKFDYVMQFLNKMAGNEYVGFSNATFQSERESGDRNFAIGYYLKEKKCFPEGTDMVGILDFYFQLCSIEVTCESASVMAATLANGGFCPITGERVLSPEAVRNTLSLMHSCGMYDFSGQFAFHVGLPAKSGVAGGILLVVPNVMGMMCWSPPLDKMGNSVKGIHFCHDLVSLCNFHNYDNLRHFAKKLDPRREGGDQRHSFGPLDYESLQQELALKDTVWKKVSPESSDDTSTTVVYRMESLGERS
notes: GAC isoform of 603 residues; also called GACwt; GAC wildtype; source: expressed from a pET28a vector, purified (Ni-column, anion-exchange, gel filtration); not shown: histidine tag, N-terminal, cleaved
B1 was tested, and the binding was “binds”.
